Library screening results

By UniProt entry, the sequences of proteins in these tests, tags left out.
UniProt E9BF75, entry or part of it: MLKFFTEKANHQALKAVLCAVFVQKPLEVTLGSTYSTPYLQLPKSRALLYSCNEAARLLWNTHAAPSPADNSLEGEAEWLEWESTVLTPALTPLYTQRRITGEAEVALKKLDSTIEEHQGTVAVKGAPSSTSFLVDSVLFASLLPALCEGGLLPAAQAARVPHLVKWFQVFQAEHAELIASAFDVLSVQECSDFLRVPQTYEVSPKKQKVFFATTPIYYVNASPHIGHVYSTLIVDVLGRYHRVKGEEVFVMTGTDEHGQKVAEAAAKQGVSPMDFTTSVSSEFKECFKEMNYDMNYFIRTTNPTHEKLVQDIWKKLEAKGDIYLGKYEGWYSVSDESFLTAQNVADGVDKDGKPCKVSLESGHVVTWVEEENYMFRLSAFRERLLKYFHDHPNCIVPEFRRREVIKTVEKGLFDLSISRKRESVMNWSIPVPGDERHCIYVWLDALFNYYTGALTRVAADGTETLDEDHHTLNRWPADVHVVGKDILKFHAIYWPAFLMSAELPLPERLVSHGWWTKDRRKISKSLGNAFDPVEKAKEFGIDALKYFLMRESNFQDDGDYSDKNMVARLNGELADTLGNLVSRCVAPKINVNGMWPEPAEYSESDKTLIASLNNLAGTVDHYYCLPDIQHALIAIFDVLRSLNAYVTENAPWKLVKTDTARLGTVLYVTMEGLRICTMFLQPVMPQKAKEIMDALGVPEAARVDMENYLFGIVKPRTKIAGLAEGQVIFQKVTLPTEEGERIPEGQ

Data taken from ChEMBL document CHEMBL3988442, “University of Dundee, Small-Polar-MMV Screening Library” (2021).

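Primary screen of methionyl-tRNA synthetase; the read-out is not stated. Target: Methionyl-tRNA synthetase (putative), Leishmania donovani (UniProt E9BF75). The test concentration is not given. The values are filed as inhibition. Of about 68,000 compounds tested this way, about 24 (0.035%) reached 50% or more in at least one test.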

Results are percentages, as filed.
How 0% and 100% were set is not recorded. Most values in the screen are low, and negative values occur.
Compounds were drawn at random from those tested, without regard to their results.

compound,Inhibition
NC(=O)CN1CCCC(C(=O)N2CCC(Oc3ncccn3)CC2)C1 (stereo unspecified),8.993
O=C(NC1CCCOc2cc(Cl)ccc21)c1ccc(=O)[nH]n1 (stereo unspecified),12.31
CCCn1nnnc1COC(=O)C1COc2ccccc2O1 (stereo unspecified),7.588
O=C(CC1CCCC1)N1CC[C@H]2[C@H]1CCN2c1nncs1,11.23
COc1ccc(-n2ccc(C(=O)N3CCN(C)CC3C)n2)cc1 (stereo unspecified),17.41
COCCNC(=O)N1CCN(C(=O)Cc2ccccc2F)CC1,4.482
COc1ccc(C(=O)N2C[C@@H](C(=O)O)[C@H](c3cccc(F)c3)C2)c(O)c1,9.253
CCc1nc(C)cc(N2CCCC(C(=O)c3ccc(OC)cc3C)C2)n1 (stereo unspecified),11.76
Cn1cccc1C(=O)N1CCO[C@@H]2CN(Cc3ccco3)C[C@@H]2C1,13.95
CNc1ncc2c(n1)CN(CCc1ccc(F)cc1)C2=O,14.45
COc1cc(C2SCC(=O)Nc3[nH]ncc32)cc2c1OCO2 (stereo unspecified),11.27
CC(C)c1cc(C(=O)N2CCCC3(CCNC3)C2)no1 (stereo unspecified),6.479
N#Cc1cn(C2CC2)c(=O)n(CC(O)c2ccc(Cl)cc2)c1=O (stereo unspecified),6.316
Cc1nccn1CC1CCCN1S(=O)(=O)Cc1ccon1 (stereo unspecified),3.286
O=C(NCCOc1ccc(Cl)cn1)Nc1nccs1,1.083
CC[C@@]1(O)CCN(C(=O)c2ccc(SC)cc2)C[C@H]1O,5.31
Cc1ccc(C)c(CSc2nnc([C@@H](N)C(C)C)o2)c1,9.686
CC(C)c1nc(O)c2nnn(C[C@H]3CCCN(Cc4ccsc4)C3)c2n1,13.65
O=C(O)c1cc2c(nc1O)CC(c1cccs1)CC2=O (stereo unspecified),7.884
COc1ncccc1NC(=O)NCC1CC1,19.23
CNC(=O)c1csc(-c2cccnc2)n1,10.28
Cc1cccc(C(=O)N2C[C@@H]3CCN(C(C)C)C[C@@H]3C2)c1,5
OCCN1CCC2(CC1)CC(NCc1ccccn1)c1ccccc1O2 (stereo unspecified),4.323
Cn1nc(C2CCCN(C(=O)Cc3ccsc3)C2)c2nccnc21 (stereo unspecified),5.822
COc1cc(Cl)ccc1C(=O)NCc1nncn1C,16.33
CC(C)c1noc(CN2CCN(C(=O)c3ccncc3F)CC2)n1,17.22
O=c1cccnn1CC1CN(Cc2ccsc2)Cc2nccn2C1 (stereo unspecified),16.74
Cn1ccnc1CN1CCCC1CCc1ccccc1 (stereo unspecified),11.02
NC(=O)C1CCN(Cc2cc3c(cc2Br)OCCO3)C1 (stereo unspecified),5.978
O=c1c(S(=O)(=O)N2CCCC2)cccn1Cc1ccc(F)cc1Cl,11.75
Cc1ccc(CN2C[C@@H]3CCCO[C@@H]3[C@H](NC(=O)CC3CC3)C2)s1,20
CCc1nc(N)sc1C(=O)N1CCCC(COc2cccc(C)c2)C1 (stereo unspecified),3.78
CN(C)CCOCC1CN(Cc2ccccn2)Cc2nnn(C)c21 (stereo unspecified),20.3
COc1ccccc1S(=O)(=O)N1CCC2(CC1)[C@H](O)C[C@@H]2O,10.78
Cc1cc(CN2CCC(CNS(=O)(=O)c3ccc(C)s3)CC2)c(C)o1,11.75
Cc1nc(-c2ccccc2F)sc1C(=O)N1CCC(=O)CC1,16.21
CCN1CCOC(CNCc2csc(C)n2)C1 (stereo unspecified),15.91
O=C(Nc1nccs1)N(CCO)Cc1ccsc1,13.27
Cn1ccnc1CNC[C@H]1Cn2cc(-c3ccccc3)nc2CO1,9.153
COc1ccc(CNC(=O)Nc2ccc(CN3CCOC3=O)cc2)cc1,12.36
Cc1c(Br)c(C(F)F)nn1C(C)C(=O)O (stereo unspecified),12.75
Cc1nc(O)cc(C2CCCN(C(=O)COCc3ccccc3)C2)n1 (stereo unspecified),6.494
Cn1ncc2c1NC(=O)CC2c1cc2c(cc1Cl)OCO2 (stereo unspecified),8
CC(C)c1nn(C)c(N(C)C)c1CNCc1cccc(CN(C)C)c1,14.17
CN1CCNC(=O)C12CCN(C(=O)c1ccc3[nH]c(=O)[nH]c3c1)CC2,8.184
O=C(Nc1cc(-c2ccccc2)on1)N1CC[C@H](O)C1,8.065
CCCN1Cc2cc(Br)ccc2OCC1=O,6.832
COC(=O)c1ccc(F)c(Cn2nc(C)cc2C)c1,15.62
CN(Cc1ccsc1)C(=O)c1ccc2c(c1)NC(=O)CO2,22.95
O=C(c1ccncc1)N1CCc2onc(CN3CCCC3)c2C1,-7.317
COc1cccc(C(=O)C2CCCN(c3cc(C#N)ccn3)C2)c1 (stereo unspecified),23.12
Cc1ccnc(NC(=O)CSCc2cccnc2)c1,6.923
COCC(O)CN1CCC(=O)N(CC(=O)C(C)(C)C)Cc2ccccc21 (stereo unspecified),17.81
Cc1ccc(-c2cc(CS(=O)(=O)NC3CCCNC3=O)on2)cc1 (stereo unspecified),2.542
COc1nccc(C(F)(F)F)c1C(=O)O,6.469
Cc1nc(C(=O)NCc2ccc(N3CCNC(=O)C3)c(F)c2)cs1,13.71
Cc1nc(C2CCCN(C(=O)c3cccc4c3OCO4)C2)sc1C (stereo unspecified),20.92
Cc1nn(CC(=O)N2CCN(c3ncccn3)CC2)c(C)c1Cl,6.789
N#Cc1ccc(C(=O)N2CC[C@H]3[C@H]2CCN3CC2CC2)cc1,11.2
Cc1csc(CNC(=O)NCC2(c3ccc4c(c3)OCO4)CC2)n1,11.83
Cc1noc(C)c1CCC(=O)N1CCCC(n2cccn2)C1 (stereo unspecified),5.866
CC(=O)N1CCC(NC(=O)NCCCc2cn[nH]c2C)CC1,2.174

Repeated from the top, 7 entries:

| compound | Inhibition |
|---|---|
| `NC(=O)CN1CCCC(C(=O)N2CCC(Oc3ncccn3)CC2)C1` (stereo unspecified) | 8.993 |
| `O=C(NC1CCCOc2cc(Cl)ccc21)c1ccc(=O)[nH]n1` (stereo unspecified) | 12.31 |
| `CCCn1nnnc1COC(=O)C1COc2ccccc2O1` (stereo unspecified) | 7.588 |
| `O=C(CC1CCCC1)N1CC[C@H]2[C@H]1CCN2c1nncs1` | 11.23 |
| `COc1ccc(-n2ccc(C(=O)N3CCN(C)CC3C)n2)cc1` (stereo unspecified) | 17.41 |
| `COCCNC(=O)N1CCN(C(=O)Cc2ccccc2F)CC1` | 4.482 |
| `COc1ccc(C(=O)N2C[C@@H](C(=O)O)[C@H](c3cccc(F)c3)C2)c(O)c1` | 9.253 |